Taken from: PubChem BioAssay AID743121 (NCATS, 2013)
This is one part, drawn at random, of about 26,000 deposited reagents. In the full data, 167 (0.63%) are marked active. 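Calls are per gene from RSA p-values that are not deposited; an individual active-marked siRNA can sensitise only weakly.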 Reagents against one gene are numbered here.

Assay: 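Knock-downs that sensitise breast cancer cells to camptothecin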 (primary screen)
Cells: MDA-MB-231 cells, a human breast cancer line
Reagent: single siRNA against human genes, 20 nM siRNA (0.8 pmol per well)
Time to read-out: 120 h (drug added 48 h after transfection, read 72 h later)
Conditions: camptothecin 20 nM (about EC30) for 72 h; vehicle 0.1% DMSO in parallel plates
Measurement: 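CellTiter-Glo ATP signal, scaled to control siRNA as percent viability; sensitisation given as log2 of untreated divided by camptothecin-treated viability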
Direction: log2 vehicle/camptothecin viability: higher = stronger sensitisation to camptothecin; viability with camptothecin and viability without drug: higher = more viable cells
Call rule: 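Active genes have an RSA gene-level p-value below 0.001, computed from the ratios of their separate siRNAs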

| target gene | reagent no. | log2 vehicle/camptothecin viability | viability with camptothecin (% of control) | viability without drug (% of control) | Call |
| --- | --- | --- | --- | --- | --- |
| BMPR1B | 1 | -0.487 | 65.4 | 46.7 | inactive |
| BMPR1B | 2 | -0.43 | 96.8 | 71.8 | inactive |
| BMPR1B | 3 | -0.173 | 108 | 96 | inactive |
| BMPR1B | 4 | 0.00623 | 74.4 | 74.7 | inactive |
| CLEC4C | 1 | -0.0334 | 81.1 | 79.2 | inactive |
| CLEC4C | 2 | -0.261 | 42.9 | 35.8 | inactive |
| CLEC4C | 3 | -0.449 | 96.7 | 70.9 | inactive |
| CLEC4C | 4 | 0.0305 | 86.1 | 87.9 | inactive |
| ADGRB2 | 1 | -0.28 | 69 | 56.8 | inactive |
| ADGRB2 | 2 | -0.153 | 111 | 99.6 | inactive |
| ADGRB2 | 3 | -0.0654 | 84.8 | 81 | inactive |
| ADGRB2 | 4 | 0.459 | 54.8 | 75.3 | inactive |
| PPP2R3B | 1 | -0.502 | 47.9 | 33.8 | inactive |
| PPP2R3B | 2 | -0.283 | 55.2 | 45.4 | inactive |
| PPP2R3B | 3 | -0.016 | 98.4 | 97.3 | inactive |
| PPP2R3B | 4 | -0.848 | 54.5 | 30.3 | inactive |
| CAPN3 | 1 | -0.175 | 76.8 | 68.1 | inactive |
| CAPN3 | 2 | -0.364 | 72.7 | 56.5 | inactive |
| CAPN3 | 3 | -0.306 | 83.1 | 67.2 | inactive |
| AMPD3 | 1 | 0.878 | 23.5 | 43.2 | inactive |
| AMPD3 | 2 | -0.114 | 105 | 96.8 | inactive |
| AMPD3 | 3 | -0.373 | 101 | 77.7 | inactive |
| AMPD3 | 4 | -0.274 | 92.4 | 76.4 | inactive |
| NET1 | 1 | -0.251 | 93.7 | 78.7 | inactive |
| NET1 | 2 | 0.179 | 87.8 | 99.4 | inactive |
| NET1 | 3 | -0.14 | 87 | 78.9 | inactive |
| NET1 | 4 | 0.212 | 78.3 | 90.7 | inactive |
| ITFG2 | 1 | 0.119 | 88.6 | 96.2 | inactive |
| ITFG2 | 2 | 0.0713 | 94.9 | 99.7 | inactive |
| ITFG2 | 3 | 0.337 | 70.9 | 89.6 | inactive |
| ITFG2 | 4 | -0.174 | 111 | 97.9 | inactive |
| MRPL35 | 1 | -0.527 | 57.8 | 40.1 | inactive |
| MRPL35 | 2 | -0.253 | 97 | 81.4 | inactive |
| MRPL35 | 3 | -0.205 | 103 | 89.1 | inactive |
| MRPL35 | 4 | -0.0655 | 90.4 | 86.4 | inactive |
| TP53RK | 1 | -0.0418 | 92.5 | 89.8 | inactive |
| TP53RK | 2 | -0.451 | 91 | 66.5 | inactive |
| TP53RK | 3 | -0.702 | 79.5 | 48.9 | inactive |
| TP53RK | 4 | -0.209 | 95.2 | 82.4 | inactive |
| ABCC13 | 1 | 0.248 | 59.1 | 70.2 | inactive |
| ABCC13 | 2 | -0.16 | 60.5 | 54.1 | inactive |
| ABCC13 | 3 | 0.0617 | 65.1 | 68 | inactive |
| CKS1B | 1 | 0.313 | 64.2 | 79.8 | inactive |
| CKS1B | 2 | 1.38 | 25.5 | 66.2 | inactive |
| CKS1B | 3 | -0.0167 | 94.3 | 93.2 | inactive |
| CKS1B | 4 | -0.192 | 76.8 | 67.2 | inactive |
